Laboratory results taken from PMC10789646.
Results are given in words; binding and its absence hold for the method and conditions named. Binding seen in cells or lysates may run through a third protein. Some entries that bind do so weakly or less than the wild type. Where a sequence is shown, tags or fusion partners need not be part of it.

Amino acid sequences for entries named in this document (tags omitted).
UniProt P55201: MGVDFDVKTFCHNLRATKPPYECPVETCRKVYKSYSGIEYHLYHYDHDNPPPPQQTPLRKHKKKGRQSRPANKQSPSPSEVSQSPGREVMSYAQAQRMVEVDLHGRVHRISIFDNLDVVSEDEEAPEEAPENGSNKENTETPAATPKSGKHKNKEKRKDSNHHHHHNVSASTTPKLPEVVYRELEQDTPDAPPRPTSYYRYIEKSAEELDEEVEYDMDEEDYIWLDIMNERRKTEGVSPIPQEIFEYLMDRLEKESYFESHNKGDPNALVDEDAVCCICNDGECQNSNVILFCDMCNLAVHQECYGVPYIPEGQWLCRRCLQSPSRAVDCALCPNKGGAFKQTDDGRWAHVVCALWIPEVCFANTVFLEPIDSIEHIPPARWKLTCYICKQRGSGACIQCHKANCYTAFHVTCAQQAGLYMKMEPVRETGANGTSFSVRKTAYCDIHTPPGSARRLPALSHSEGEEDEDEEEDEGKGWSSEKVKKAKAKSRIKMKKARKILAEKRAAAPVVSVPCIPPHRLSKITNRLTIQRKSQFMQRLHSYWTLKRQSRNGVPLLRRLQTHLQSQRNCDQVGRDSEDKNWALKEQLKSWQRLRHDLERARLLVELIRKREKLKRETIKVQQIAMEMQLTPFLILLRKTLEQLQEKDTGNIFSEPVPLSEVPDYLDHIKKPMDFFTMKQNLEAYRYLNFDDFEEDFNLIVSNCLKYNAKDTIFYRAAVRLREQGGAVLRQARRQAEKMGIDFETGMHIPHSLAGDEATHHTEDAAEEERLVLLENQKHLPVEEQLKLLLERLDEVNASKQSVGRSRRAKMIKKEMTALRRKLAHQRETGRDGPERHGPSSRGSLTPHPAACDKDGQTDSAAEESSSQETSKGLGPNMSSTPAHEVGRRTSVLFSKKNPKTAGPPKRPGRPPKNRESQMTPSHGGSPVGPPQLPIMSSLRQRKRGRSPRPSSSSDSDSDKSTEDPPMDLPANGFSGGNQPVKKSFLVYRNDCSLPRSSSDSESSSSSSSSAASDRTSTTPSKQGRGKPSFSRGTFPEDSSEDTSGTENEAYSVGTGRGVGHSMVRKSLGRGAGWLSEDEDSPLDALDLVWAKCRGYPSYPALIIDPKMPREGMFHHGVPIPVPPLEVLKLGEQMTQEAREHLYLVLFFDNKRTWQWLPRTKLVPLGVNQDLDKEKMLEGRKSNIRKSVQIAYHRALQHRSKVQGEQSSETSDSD

Molecular target: V5-tagged BRPF1 (UniProt P55201)
Assay: co-IP; Huh-7 cells cotransfected with V5-BRPF1 and Myc-ILF3, trichostatin A treated; anti-V5 or anti-Myc on Dynabeads Protein G; with and without 5 μM PFI-4; Western blot

B1: Myc-tagged ILF3 (protein, UniProt Q12906 1-894)
chain: MRPMRIFVNDDRHVMAKHSSVYPTQEELEAVQNMVSHTERALKAVSDWIDEQEKGSSEQAESDNMDVPPEDDSKEGAGEQKTEHMTRTLRGVMRVGLVAKGLLLKGDLDLELVLLCKEKPTTALLDKVADNLAIQLAAVTEDKYEILQSVDDAAIVIKNTKEPPLSLTIHLTSPVVREEMEKVLAGETLSVNDPPDVLDRQKCLAALASLRHAKWFQARANGLKSCVIVIRVLRDLCTRVPTWGPLRGWPLELLCEKSIGTANRPMGAGEALRRVLECLASGIVMPDGSGIYDPCEKEATDAIGHLDRQQREDITQSAQHALRLAAFGQLHKVLGMDPLPSKMPKKPKNENPVDYTVQIPPSTTYAITPMKRPMEEDGEEKSPSKKKKKIQKKEEKAEPPQAMNALMRLNQLKPGLQYKLVSQTGPVHAPIFTMSVEVDGNSFEASGPSKKTAKLHVAVKVLQDMGLPTGAEGRDSSKGEDSAEETEAKPAVVAPAPVVEAVSTPSAAFPSDATAEQGPILTKHGKNPVMELNEKRRGLKYELISETGGSHDKRFVMEVEVDGQKFQGAGSNKKVAKAYAALAALEKLFPDTPLALDANKKKRAPVPVRGGPKFAAKPHNPGFGMGGPMHNEVPPPPNLRGRGRGGSIRGRGRGRGFGGANHGGYMNAGAGYGSYGYGGNSATAGYSQFYSNGGHSGNASGGGGGGGGGSSGYGSYYQGDNYNSPVPPKHAGKKQPHGGQQKPSYGSGYQSHQGQQQSYNQSPYSNYGPPQGKQKGYNHGQGSYSYSNSYNSPGGGGGSDYNYESKFNYSGSGGRSGGNSYGSGGASYNPGSHGGYGGGSGGGSSYQGKQGGYSQSNYNSPGSGQNYSGPPSSYQSSQGGYGRNADHSMNYQYR
In the case of B1, the binding is reported as “binds”.
